Measurements published in publication PMC4227133.
No constants are given. Whether binding was seen depends on the method and setting. Binding seen in cells or lysates may run through a third protein. Some binding calls cover weakened binding; strength is not graded here.

By UniProt entry, the sequences of proteins in these tests, tags left out.
UniProt O60563: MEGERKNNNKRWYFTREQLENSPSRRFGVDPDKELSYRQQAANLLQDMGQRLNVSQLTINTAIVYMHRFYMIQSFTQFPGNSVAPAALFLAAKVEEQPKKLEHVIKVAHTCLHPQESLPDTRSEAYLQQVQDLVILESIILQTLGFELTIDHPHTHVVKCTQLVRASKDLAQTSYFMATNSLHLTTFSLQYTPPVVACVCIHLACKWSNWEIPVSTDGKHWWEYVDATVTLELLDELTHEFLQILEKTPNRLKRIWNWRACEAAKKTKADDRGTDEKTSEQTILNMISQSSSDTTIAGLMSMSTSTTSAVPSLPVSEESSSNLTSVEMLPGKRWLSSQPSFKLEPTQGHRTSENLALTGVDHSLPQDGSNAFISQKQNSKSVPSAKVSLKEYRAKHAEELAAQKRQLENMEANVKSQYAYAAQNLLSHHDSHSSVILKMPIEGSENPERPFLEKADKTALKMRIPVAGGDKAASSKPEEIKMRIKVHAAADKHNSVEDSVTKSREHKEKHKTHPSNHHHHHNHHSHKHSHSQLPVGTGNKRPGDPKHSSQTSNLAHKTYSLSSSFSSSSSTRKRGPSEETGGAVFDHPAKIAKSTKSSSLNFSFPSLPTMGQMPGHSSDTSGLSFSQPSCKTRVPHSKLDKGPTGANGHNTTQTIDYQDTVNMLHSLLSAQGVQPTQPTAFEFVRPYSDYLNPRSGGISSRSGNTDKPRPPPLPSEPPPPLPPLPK
UniProt O94992: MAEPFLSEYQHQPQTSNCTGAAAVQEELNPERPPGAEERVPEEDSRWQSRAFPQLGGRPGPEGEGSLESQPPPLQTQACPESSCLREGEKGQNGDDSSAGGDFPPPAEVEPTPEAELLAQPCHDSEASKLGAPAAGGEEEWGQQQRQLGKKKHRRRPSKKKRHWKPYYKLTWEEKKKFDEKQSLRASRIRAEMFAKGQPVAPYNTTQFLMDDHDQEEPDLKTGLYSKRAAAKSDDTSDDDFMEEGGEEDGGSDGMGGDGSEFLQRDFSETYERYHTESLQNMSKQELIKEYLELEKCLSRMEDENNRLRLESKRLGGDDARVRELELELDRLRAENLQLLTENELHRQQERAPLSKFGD

Molecular target: Gal4-CycT1 wild type expressed in HEK293 cells (pCMVGal4-CycT1m) (human) (UniProt O60563)
Test: co-IP; Gal4-CycT1 proteins transiently expressed in HEK293 cells, immunoprecipitated with anti-Gal4 antibodies; Western blot with Cdk9, Cyclin T1 and Hexim1 antibodies; lysis buffer with 200 mM NaCl, 0.5% Igepal

## Hexim1, endogenous in HEK293 cells (from UniProt O94992 1-359)
  binding: binds
